According to patent US12269859B2, “Synthetic immune receptors and methods of use thereof” (Angeles Therapeutics, Inc., priority 2016, dated 2025):
For at least one compound, name, drawing or mass did not settle the structure.

Test system: RAJI cells
Experiment: GLuc cytotoxicity assay, RAJI-GLuc cells
Assay type: cell-based, human
Settings: 100 nM, E:T 5:1, 4-24 h; SIR-T cells SEQ ID NO:1021 and 1221

Cc1nc(Nc2ncc(C(=O)Nc3c(C)cccc3Cl)s2)cc(N2CCN(CCO)CC2)n1 [Dasatinib] was tested, and the “inhibition of SIRs-induced cell death (in words)” value was “significant inhibition of SIRs-induced cell death”.
